The values are deposited in ChEMBL (CHEMBL3988442, “University of Dundee, Small-Polar-MMV Screening Library” (2021)).

Results are given as percent effect.
The controls that fix the scale are not given in the record; negative values are as filed.
This is an unselected part of the compounds tested.

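Whole-parasite assay of Trypanosoma brucei over 72 hours; the read-out is not stated. Concentration: 30 µM. The record gives no direction; compounds that gave an IC50 in retests scored well above the rest, so higher reads as stronger inhibition. Values scatter widely below zero; nearly all retest evidence comes from the higher of the two concentrations used. Size under these conditions: about 64,000 compounds, about 940 of them at 50% or above in at least one test.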

Compound | Percent Effect
Cc1cc(C)n(C2CN(CCc3ccncc3)C2)n1 | -34.73
Cc1[nH]c(=O)sc1S(=O)(=O)N1CCCC1C(=O)NC1CC1 (centres unmarked) | 5.287
O=C(CS(=O)(=O)C1CCCC1)NC1CCc2nccn2C1 (centres unmarked) | -22.75
Cc1ccccc1OC1(C(=O)O)CCN(C(=O)CCc2ccco2)CC1 | -45.67
COc1ccnc(N2CCCN(c3nc(C4CC4)ns3)CC2)n1 | 11.71
CC(C)c1nn(C)c(Cl)c1CNCCn1cccn1 | -16.21
c1ccc(N2CCC(NCc3cccc4cn[nH]c34)C2)cc1 (centres unmarked) | 16.58
CCCc1cc(C(=O)N2C[C@@H](C)[C@](O)(C3CCC3)C2)[nH]n1 | -27.63
CC(Cn1cccn1)NCc1ccc(OCc2ccncc2)cc1 (centres unmarked) | 18.38
CCn1c(Cn2cccn2)nnc1C1CCN(Cc2ccc(C)o2)CC1 | -36.12
Cc1ccc(C2COCCN2C(=O)c2ccc(N(C)C)cc2)o1 (centres unmarked) | 5.525
O=C(CCN1CCCN(c2nccs2)CC1)Nc1ccccc1 | -21.58
CCC(CC)C(O)CNC(=O)Cc1c[nH]c2ncccc12 (centres unmarked) | -26.08
Cn1cc(-c2nc(C(=O)N3CCCC3c3cnn(C)c3)cs2)cn1 (centres unmarked) | -31.46
CCc1nnc(CN2CCCN(C(=O)c3ccccn3)CC2)o1 | 19.55
CCc1nc(CN2CCCC(N(C)CCc3cccs3)C2)no1 (centres unmarked) | -26.58
CC(C)N(C(=O)CCc1ccco1)C1CCOCC1 | 5.326
O=C(O)C1(Oc2ccc3ccccc3c2)CCN(c2ncccn2)CC1 | -14.52
CC1=CC(C)(C)N(CN2C(=O)c3ccccc3C2=O)c2ccc(C)cc21 | -14.34
O=C(O)C(F)(F)F.O=C(O)C(F)(F)F.[H][C@@]12CN(Cc3ccc(C)s3)CCC[C@]1(C(=O)O)CN(CCOC)C2 | -56.59
CCC[C@H]1CN(S(C)(=O)=O)C[C@@H]1NC(=O)COC(C)C | -13.78
CN(C)c1nc2c(c(=O)[nH]1)CCN(C(=O)c1cccc3nccnc13)C2 | -62.59
CCN(CCNC(=O)c1cccc(C)c1C)C1CC1 | 11.57
Cc1ccoc1C(=O)N1CCn2nnc(COc3cccnc3)c2C1.O=C(O)C(F)(F)F | 34.68
O=C(O)C(F)(F)F.[H][C@@]12CCCO[C@]1([H])[C@H](NS(C)(=O)=O)CN(Cc1cc(C)on1)C2 | 8.334
CCn1cnnc1CNC(=O)NC(C)C(C)C (centres unmarked) | 0.2435
Cc1csc(CCCNC(C)CC(=O)Nc2cccc(C)c2C)n1 (centres unmarked) | 4.875
Cn1ncc2c(NC3CCCN(C(=O)C4CC4)C3)nc(C(C)(C)C)nc21 (centres unmarked) | 43.28
CC(C)C(C)N(C)Cc1nnc(-c2ccc(Br)s2)o1 (centres unmarked) | -53.41
[H][C@]12CN(Cc3c[nH]nc3-c3ccccc3)C[C@]1([H])N(CCOC)C(=O)CO2 | 18.32
O=C(Cc1ccc2c(c1)OCCO2)N1CCCC(n2cccn2)C1 (centres unmarked) | -12.97
O=C(O)C(F)(F)F.[H][C@@]12CCCO[C@]1([H])[C@H](OCc1cccnc1)CN2C(=O)N1CCCC1 | 38.14
CSc1ccc(CNC2CCCc3c2cnn3C)cc1.Cl (centres unmarked) | -19.25
COc1ccc(F)cc1C(=O)Nc1nnc(C)s1 | -54.2
O=c1cccnn1CC1CN(c2ncc(F)cn2)Cc2nccn2C1 (centres unmarked) | -4.672
Cc1nc(-c2ccccc2C)n(CC(=O)NC2CCCC2)n1 | -25.15
Oc1ccccc1CN1CCCCCC1c1cccs1 (centres unmarked) | 0.1886
Cc1cccnc1CNCC1(O)CCCN(CC(C)(C)C)C1=O (centres unmarked) | -2.737
CCC(CNC1CCN(C(C)=O)CC1)Oc1cccc(C)c1 (centres unmarked) | -29.94
CC(C)Nc1nc2c(s1)C(=O)CN(CC1CC1)C2 | -21.29
CC(C)Cc1cc(C(=O)N2CCC(Oc3cccnc3)CC2)n(C)n1 | 9.887
[H][C@@]12CCC(=O)N(CC(C)C)[C@]1([H])CCN(C(=O)Cn1ccc(=O)cc1)C2 | -20.26
CNC(=O)C1(CCCc2cccnc2)CCCCN1 (centres unmarked) | -4.999
CC(c1ccccc1)N1CCC(NC(=O)CCc2ccsc2)CC1 (centres unmarked) | -10.5
Cc1ccc(NC(=O)c2ccc(=O)n(CC(=O)NC3CCCC3)n2)cc1 | 15.94
CN(C)Cc1cnc(C2CCN(C(=O)c3cc(F)cc(F)c3)C2)[nH]1 (centres unmarked) | -23.02
COc1ccc(-c2ncc(-c3nccn3CCN(C)C)cn2)cc1 | -18.98
C[C@@H]1CN(C(=O)C2CCOCC2)C[C@]12CCN(c1cccnc1)C2=O.O=C(O)C(F)(F)F | -10.18
O=C(CN1CCCc2cc(F)cc(F)c21)Nc1ccc(Br)cn1 | -44.04
NC(=O)NC1CCN(Cc2ccccc2OCC(F)(F)F)CC1 | -17.75
CC(C)CC(CCO)CNC(=O)N1CCCC1(C)C (centres unmarked) | -23.5
CN(CC1CCN(c2ccccc2)C1)c1ccc(Cn2ccnc2)cn1 (centres unmarked) | -129.9
Cc1ncsc1C(=O)N(C)Cc1ccsc1 | 13.08
O=C(c1ccco1)N1CCOCC2(C1)CN(c1ccccn1)C(=O)CO2 (centres unmarked) | -3.934
Cc1cc(C2CCCN(C(=O)c3ccc(Cl)o3)C2)n[nH]1 (centres unmarked) | 14.23
O=c1cc(-c2ccccc2)nc2n1CCCCC2 | -19.17
CC(C)C(=O)N(C)Cc1nnc2n1CCCCC2 | -120.2
CC(C)(C)c1ccc(S(=O)(=O)CCN2CCNC(=O)CC2)cc1 | 14.24
CC[C@H](Cn1ncc2ccccc2c1=O)NC(=O)c1ccccn1 | -1.215
Cc1nc(C)n(CC2CCCN2Cc2nnc(-c3ccco3)o2)n1 (centres unmarked) | -7.541
Cc1nc(N2CCC(C(O)c3nccn3C)CC2)c2cccnc2n1 (centres unmarked) | -50.29
Cc1c[nH]nc1C1CCN(S(=O)(=O)N(C)C)C1 (centres unmarked) | 9.706
CC(=O)N1CCCC(c2ccnc(Nc3cnccn3)c2)C1 (centres unmarked) | 8.097
O=C(O)C(F)(F)F.[H][C@]12C[C@H](C(=O)NC)N(S(C)(=O)=O)[C@@]1([H])CN(C(=O)c1ccccn1)C2 | -16.02
CCOC(=O)Cc1csc(NC(=O)c2cc(=O)c(OC)c[nH]2)n1 | -39.34
CCc1csc(C2CCCN(C(=O)c3ccc(=O)n(C)n3)C2)n1 (centres unmarked) | -54.79
N[C@H]1CC[C@@H](NC(=O)c2ccc3nc(-c4ccc(F)cc4)cn3c2)CC1 | -24.27
O=C(O)C(F)(F)F.O=C(O)C(F)(F)F.[H][C@@]12COC[C@@H](C(=O)N3CCCCO3)[C@]1([H])CN(Cc1cnn(C)c1)C2 | -7.011
CCc1nc(C2CCCN2CCCSC)no1 (centres unmarked) | 7.006
O=C(O)[C@@H]1CN(CC(=O)N2CCCCC2)C[C@H]1c1ccc(F)cc1 | -13.04
CS(=O)(=O)N1CCOC2(CCN(c3ncccn3)CC2)c2ccccc21 | -32.29
CC(C1CCN(Cc2cnn(C)c2C2CC2)CC1)N1CCN(C)CC1 (centres unmarked) | -37.05
CN(CCc1ccncc1)C(=O)C1CSCN1C(=O)CC(C)(C)C (centres unmarked) | 2.561
CCOc1ccc(C(=O)CCC(=O)NCc2cncn2CC)cc1C | -63.95
CN(C)[C@@H]1CCN(C(=O)CC2CC2)[C@H]1Cc1cnn(C)c1.O=C(O)C(F)(F)F | -87.18
CC(CN(C)C)Nc1nc(O)cc(Cc2ccccc2F)n1 (centres unmarked) | 4.538
O=C(CCc1ccncc1)Nc1ccc(OCC2CC2)cc1 | -122.6
c1cncc(CN2CCCC(c3nnc(-c4cnccn4)o3)C2)c1 (centres unmarked) | 10.54
CC(C)Cc1cc(NC(=O)c2ccc3[nH]nnc3c2)n(C)n1 | -140.4
Cc1nccn1CCN(C)C(=O)c1cn(-c2ccccc2)nn1 | -22.96
CCn1cc(CN2CCCN(C(=O)Cc3cccs3)CC2)cn1 | 19.19
CSCCC(NC(N)=O)C(=O)N1CCC(Cc2ccccc2)CC1 (centres unmarked) | -44.88
Cc1cn[nH]c1C1COCCN1C(=O)c1ccc2c(c1)CCCC2 (centres unmarked) | -1.466
Cc1cc(C(F)(F)F)nc(C2CCCN2S(C)(=O)=O)n1 (centres unmarked) | 7.83
Cc1noc(C(C)C)c1C(=O)NCc1cccc(N(C)C)c1 | -34.01
COCC(=O)N1CCCC(C(=O)NCc2cc(CC(C)C)on2)C1 (centres unmarked) | -34.69
[H][C@@]12CCN(C[C@@H]1C(=O)N1CCOCC1)[C@@H](Cn1cc(C(C)(C)O)nn1)C2 | -0.01582
CN1CCOC(CNCc2cccc(OC(F)(F)F)c2)C1 (centres unmarked) | 11.06
CC(=O)NCCNC(=O)c1cc(COc2ccccc2)[nH]n1 | -81.44
Cc1cc(NCc2cccnc2)n2nc(C)cc2n1 | 51.67
CCOC(=O)c1ccc(NC(=O)c2cc3c([nH]c2=O)CCCC3)cc1 | 16.55
CNc1nc(CNC(=O)Nc2cccc(COCCOC(C)C)c2)cs1 | -16.27
O=C(Cc1csc(-c2ccco2)n1)N1CCN(c2ccccc2O)CC1 | -10.63

Repeated from the top, 5 entries:

* Cc1cc(C)n(C2CN(CCc3ccncc3)C2)n1 : -34.73%
* Cc1[nH]c(=O)sc1S(=O)(=O)N1CCCC1C(=O)NC1CC1 (centres unmarked) : 5.287%
* O=C(CS(=O)(=O)C1CCCC1)NC1CCc2nccn2C1 (centres unmarked) : -22.75%
* Cc1ccccc1OC1(C(=O)O)CCN(C(=O)CCc2ccco2)CC1 : -45.67%
* COc1ccnc(N2CCCN(c3nc(C4CC4)ns3)CC2)n1 : 11.71%